# Experimental data published in article doi:10.1101/2025.02.11.637442.
# Protein sequences, listed by entry. Tags and fused reporters are not part of them.
# UniProt P20963: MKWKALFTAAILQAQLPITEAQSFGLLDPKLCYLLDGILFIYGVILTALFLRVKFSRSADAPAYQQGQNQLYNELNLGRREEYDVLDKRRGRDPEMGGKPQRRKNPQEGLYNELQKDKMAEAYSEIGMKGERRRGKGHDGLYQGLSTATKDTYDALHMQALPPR
# UniProt P43403: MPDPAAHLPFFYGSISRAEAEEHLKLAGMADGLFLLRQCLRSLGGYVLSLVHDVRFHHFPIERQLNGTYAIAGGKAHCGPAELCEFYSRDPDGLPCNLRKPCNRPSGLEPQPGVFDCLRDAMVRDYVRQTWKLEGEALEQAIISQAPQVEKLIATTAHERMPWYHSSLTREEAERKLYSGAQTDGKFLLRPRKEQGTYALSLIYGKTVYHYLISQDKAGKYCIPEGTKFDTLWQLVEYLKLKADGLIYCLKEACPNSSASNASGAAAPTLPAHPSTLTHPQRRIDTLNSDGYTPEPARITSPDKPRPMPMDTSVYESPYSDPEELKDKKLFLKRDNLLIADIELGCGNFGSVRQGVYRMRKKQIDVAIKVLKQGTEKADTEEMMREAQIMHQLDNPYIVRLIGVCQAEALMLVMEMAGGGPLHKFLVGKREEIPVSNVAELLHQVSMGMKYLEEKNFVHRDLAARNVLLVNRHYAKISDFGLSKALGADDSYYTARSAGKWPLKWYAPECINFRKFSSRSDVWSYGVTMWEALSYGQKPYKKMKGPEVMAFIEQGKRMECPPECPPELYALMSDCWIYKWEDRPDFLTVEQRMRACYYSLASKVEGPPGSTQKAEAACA
# These are yes or no findings as the source states them, for the method shown. In cells and extracts the contact can be indirect. Some results given as binding are weak or reduced against the parent protein; the word gives no strength.
# Biological target: CD3ζ (human (endogenous in primary T cells)) (UniProt P20963)
# Experiment: proximity ligation
substance,measurement,value
ZAP70 (from UniProt P43403 1-619) (enzyme),binding,binds
